Patent publication US8778337B2, “Use of S-adenosylmethionine (SAM) and superoxide dismutase (SOD) for the preparation of medicaments for the treatment of alzheimer's disease” (Gnosis S.p.A., priority 2008, dated 2014)
Some results were stated once for a whole list of compounds, not compound by compound.

System: Aβ 1-42
Test: Amyloid-beta production in neuroblastoma cells (Aβ 1-42 ELISA)
Type: cell-based, human
Settings: B deficient medium, one week of treatment, FIG. 4, one-way ANOVA with Bonferroni post test

B1: SOD: enzyme superoxide dismutase, obtained by fermentation from strains of Saccharomyces cerevisiae (protein, UniProt P00445 2-154, looked up)
Superoxide dismutase [Cu-Zn]: VQAVAVLKGDAGVSGVVKFEQASESEPTTVSYEIAGNSPNAERGFHIHEFGDATNGCVSAGPHFNPFKKTHGAPTDEVRHVGDMGNVKTDENGVAKGSFKDSLIKLIGPTSVVGRSVVIHAGQDDLGKGDTEESLKTGNAGPRPACGVIGLTN
- amyloid-beta production, p vs. B def.: < 0.001
